Source: PMC10704377
For at least one entry, the source does not settle the construct or the ends of the probe.

The chains behind the UniProt entries cited, without tags or fusion partners. Where a name states a change or a piece, a line headed by the entry shows the natural chain unless it says otherwise.
UniProt Q9GZX7: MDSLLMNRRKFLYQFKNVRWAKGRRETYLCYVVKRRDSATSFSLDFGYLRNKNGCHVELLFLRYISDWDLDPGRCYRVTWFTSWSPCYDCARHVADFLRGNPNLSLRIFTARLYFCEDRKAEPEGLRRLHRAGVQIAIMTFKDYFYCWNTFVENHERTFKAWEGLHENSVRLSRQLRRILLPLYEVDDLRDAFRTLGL

Biological target: GST-AID (activation-induced cytidine deaminase) (UniProt Q9GZX7)
Test: EMSA
Settings: 100 mM KCl, 0.5 and 1 ug AID, complex stays in well; Oligos heat-denatured and slowly cooled in 100 mM KCl; AID 0.5-1 ug, 4 °C, 1 h; 4% native PAGE with 100 mM KCl in gel and buffer, room temperature; recombinant protein; protein details: GST (pGEX-5X-3p); label: 5'-32P; folded or branched DNA

Sequence | binding result
ACTGGGGCTGGGGTGGGGGGTAATCCAGAACTGGATCGGGGT [KD16] | binds
TCTGGGTTTTGGGGGGCTGGGGGTTGCTTTGCGGTGGGCA [KD18] | binds
